From patent publication US4113714A (American Home Products Corporation, priority 1975, dated 1978)
Strings that start with PEPTIDE1 are HELM notation: dots part the residues, brackets hold end groups and non-standard residues.

Assay: general procedure: Boc solid-phase peptide synthesis; Chloromethylated polystyrene resin (0.75 m moles Cl/g); diisopropylcarbodiimide; p-nitrophenyl ester for asparagine
Details: whole synthesis, scale 0.85 m moles, diacetate salt

## PEPTIDE1{[Mpa].K.N.F.F.W.K.T.F.T.S.C}$PEPTIDE1,PEPTIDE1,1:R3-12:R3$$$V2.0
  crude mass: 4.0 g
